{"source": "PubChem BioAssay AID248", "about": "(DTP/NCI, 2004)", "test_system": "L1210 leukemia ip in BDF1 mice, survival T/C", "test": "NCI In Vivo Anticancer Drug Screen. Data for tumor model L1210 Leukemia (intraperitoneal) in B6D2F1 (BDF1) mice", "conditions": "T/C endpoint: mean survival time, higher T/C = longer survival", "key": {"[1]": {"conditions": "dose: 100.0 mg/kg/injection, schedule: Q01DX001 (ip), vehicle: carboxymethylcellulose (CMC)"}, "[2]": {"conditions": "dose: 200.0 mg/kg/injection, schedule: Q01DX001 (ip), vehicle: carboxymethylcellulose (CMC)"}, "[3]": {"conditions": "dose: 400.0 mg/kg/injection, schedule: Q01DX001 (ip), vehicle: carboxymethylcellulose (CMC)"}, "[4]": {"conditions": "dose: 400.0 mg/kg/injection, schedule: Q01DX009 (ip), vehicle: carboxymethylcellulose (CMC)"}}, "note": "The list shows only some results of the screen, not a fair sample: it gathers some chemical classes. Not every dose and run of a compound is shown. T/C gives the treated animals as a percentage of the vehicle group. Some entries give survivors of the animals treated and no T/C: the source files T/C as zero there, which appears to mark a toxic dose or a test without result, not a measured value. Some survivor counts are full or nearly so, which does not show that the dose was tolerated: the source hardly ever lists a survival T/C far under the control, and the zero likely stands for such cases as well. Survivors were counted at the toxicity check, usually on the fifth day, unless a day is given; later deaths do not show. Schedule codes are those of the source, read here as Q, the interval in days (D) or hours (H), X, the number of doses. Where survival is the endpoint, this PubChem deposit counts one and a half times the control or more as active, and values a quarter to a half above the control carry no call in these data; other NCI protocols may use other cut-offs. Signs of the kind (2×) give the number of equal values in this list. Some entries were tested several times; the values are given in rising order. Some schedules carry Z or #; the key to these is not given. Some entries show no survivor count and are marked so; the dose need not have been tolerated. Some T/C values carry the count of animals alive at the toxicity check (mostly the fifth day); without a count or a note in brackets, all were alive then."}
{"smiles": "CCOP(=O)(NC(=O)NN1CCCCC1)OCC", "values": [{"measurement": "T/C", "setting": "[1]", "value": "93 % of control"}, {"measurement": "T/C", "setting": "dose: 100.0 mg/kg/injection, schedule: Q01DX009 (ip), vehicle: carboxymethylcellulose (CMC)", "value": "100 % of control (2×)"}, {"measurement": "T/C", "setting": "dose: 100.0 mg/kg/injection, schedule: Q04DX002 (ip), vehicle: carboxymethylcellulose (CMC)", "value": "98 % of control"}, {"measurement": "T/C", "setting": "dose: 100.0 mg/kg/injection, schedule: Q04DX003 (ip), vehicle: carboxymethylcellulose (CMC)", "value": "90 % of control"}, {"measurement": "T/C", "setting": "[2]", "value": "88 % of control"}, {"measurement": "T/C", "setting": "dose: 200.0 mg/kg/injection, schedule: Q01DX009 (ip), vehicle: carboxymethylcellulose (CMC)", "value": "100 and 115 % of control"}, {"measurement": "T/C", "setting": "dose: 200.0 mg/kg/injection, schedule: Q04DX002 (ip), vehicle: carboxymethylcellulose (CMC)", "value": "88 % of control"}, {"measurement": "T/C", "setting": "dose: 200.0 mg/kg/injection, schedule: Q04DX003 (ip), vehicle: carboxymethylcellulose (CMC)", "value": "96 % of control"}, {"measurement": "T/C", "setting": "[3]", "value": "108 % of control [5 of 6 alive]"}, {"measurement": "T/C", "setting": "[4]", "value": "98 % of control"}, {"measurement": "survivor count", "setting": "[4]", "value": "0 of 3"}, {"measurement": "T/C", "setting": "dose: 400.0 mg/kg/injection, schedule: Q04DX002 (ip), vehicle: carboxymethylcellulose (CMC)", "value": "94 % of control"}, {"measurement": "T/C", "setting": "dose: 400.0 mg/kg/injection, schedule: Q04DX003 (ip), vehicle: carboxymethylcellulose (CMC)", "value": "95 % of control"}]}
{"smiles": "BrCc1cccc(CBr)c1", "values": [{"measurement": "T/C", "setting": "dose: 6.25 mg/kg/injection, schedule: Q01DX009 (ip), vehicle: saline with Tween-80", "value": "97 % of control"}, {"measurement": "T/C", "setting": "dose: 6.25 mg/kg/injection, schedule: Q04DX003 (ip), vehicle: saline with Tween-80", "value": "87 % of control"}, {"measurement": "T/C", "setting": "dose: 12.5 mg/kg/injection, schedule: Q01DX009 (ip), vehicle: saline with Tween-80", "value": "92 % of control"}, {"measurement": "T/C", "setting": "dose: 12.5 mg/kg/injection, schedule: Q04DX003 (ip), vehicle: saline with Tween-80", "value": "87 % of control"}, {"measurement": "survivor count", "setting": "dose: 25.0 mg/kg/injection, schedule: Q01DX009 (ip), vehicle: saline with Tween-80", "value": "5 of 6"}, {"measurement": "T/C", "setting": "dose: 25.0 mg/kg/injection, schedule: Q04DX003 (ip), vehicle: saline with Tween-80", "value": "88 % of control"}, {"measurement": "survivor count", "setting": "dose: 100.0 mg/kg/injection, schedule: Q04DX003 (ip), vehicle: Klucel (hydroxypropylcellulose) (HPC)", "value": "0 of 6"}, {"measurement": "survivor count", "setting": "dose: 200.0 mg/kg/injection, schedule: Q04DX003 (ip), vehicle: Klucel (hydroxypropylcellulose) (HPC)", "value": "0 of 6"}, {"measurement": "survivor count", "setting": "dose: 400.0 mg/kg/injection, schedule: Q04DX003 (ip), vehicle: Klucel (hydroxypropylcellulose) (HPC)", "value": "0 of 6"}]}
{"smiles": "O=C(Nc1ccc([N+](=O)[O-])cn1)NP(=O)(Nc1ccccc1)Nc1ccccc1", "values": [{"measurement": "T/C", "setting": "dose: 50.0 mg/kg/injection, schedule: Q01DX001 (ip), vehicle: carboxymethylcellulose (CMC)", "value": "95 % of control"}, {"measurement": "T/C", "setting": "[1]", "value": "95 % of control"}, {"measurement": "T/C", "setting": "[2]", "value": "95 % of control"}, {"measurement": "survivor count", "setting": "[3]", "value": "1 of 4"}]}
{"smiles": "O=C(O)CC(ON=C1c2c(cc([N+](=O)[O-])cc2[N+](=O)[O-])-c2cc([N+](=O)[O-])cc([N+](=O)[O-])c21)C(=O)O.c1ccccc1", "note": "(centres undefined)", "values": [{"measurement": "T/C", "setting": "dose: 100.0 mg/kg/injection, schedule: Q04DX002 (ip), vehicle: saline", "value": "99 % of control"}, {"measurement": "T/C", "setting": "dose: 200.0 mg/kg/injection, schedule: Q04DX002 (ip), vehicle: saline", "value": "92 % of control"}, {"measurement": "T/C", "setting": "dose: 400.0 mg/kg/injection, schedule: Q04DX002 (ip), vehicle: saline", "value": "92 % of control"}]}
{"smiles": "C[n+]1ccc(N(CCCl)CCCl)cc1", "values": [{"measurement": "T/C", "setting": "dose: 1.25 mg/kg/injection, schedule: Q01DX Z (ip), vehicle: saline", "value": "103 % of control"}, {"measurement": "T/C", "setting": "dose: 2.5 mg/kg/injection, schedule: Q01DX Z (ip), vehicle: saline", "value": "101 % of control"}, {"measurement": "T/C", "setting": "dose: 5.0 mg/kg/injection, schedule: Q01DX Z (ip), vehicle: saline", "value": "104 % of control"}, {"measurement": "T/C", "setting": "dose: 10.0 mg/kg/injection, schedule: Q01DX Z (ip), vehicle: saline", "value": "103 % of control"}]}
{"smiles": "N/C(=N/[N+](=O)[O-])N(CCBr)N=O.NC1=CCCN1[N+](=O)[O-]", "values": [{"measurement": "T/C", "setting": "dose: 50.0 mg/kg/injection, schedule: Q01DX001 (ip), vehicle: saline", "value": "98 % of control"}, {"measurement": "T/C", "setting": "dose: 56.0 mg/kg/injection, schedule: Q01DX015 (ip), vehicle: saline", "value": "93 % of control"}, {"measurement": "T/C", "setting": "dose: 84.0 mg/kg/injection, schedule: Q01DX015 (ip), vehicle: saline", "value": "96 % of control"}, {"measurement": "T/C", "setting": "dose: 100.0 mg/kg/injection, schedule: Q01DX001 (ip), vehicle: saline", "value": "98 % of control"}, {"measurement": "T/C", "setting": "dose: 126.0 mg/kg/injection, schedule: Q01DX015 (ip), vehicle: saline", "value": "96 % of control"}, {"measurement": "T/C", "setting": "dose: 189.0 mg/kg/injection, schedule: Q01DX015 (ip), vehicle: saline", "value": "100 % of control"}, {"measurement": "T/C", "setting": "dose: 200.0 mg/kg/injection, schedule: Q01DX001 (ip), vehicle: saline", "value": "98 % of control"}, {"measurement": "survivor count", "setting": "dose: 400.0 mg/kg/injection, schedule: Q01DX001 (ip), vehicle: saline", "value": "2 of 4"}]}
{"smiles": "O=[N+]([O-])c1cccc(Oc2cc(Br)c([N+](=O)[O-])cc2[N+](=O)[O-])c1", "values": [{"measurement": "T/C", "setting": "dose: 75.0 mg/kg/injection, schedule: Q01DX001 (ip), vehicle: acetone", "value": "96 % of control"}, {"measurement": "T/C", "setting": "dose: 150.0 mg/kg/injection, schedule: Q01DX001 (ip), vehicle: acetone", "value": "100 % of control"}, {"measurement": "survivor count", "setting": "dose: 300.0 mg/kg/injection, schedule: Q01DX001 (ip), vehicle: acetone", "value": "0 of 6"}]}
{"smiles": "N/C(=N\\Nc1c([N+](=O)[O-])cc([N+](=O)[O-])cc1[N+](=O)[O-])c1cc([N+](=O)[O-])cc([N+](=O)[O-])c1", "values": [{"measurement": "T/C", "setting": "[1]", "value": "97 % of control [survivor count not shown]"}, {"measurement": "T/C", "setting": "[2]", "value": "87 % of control [survivor count not shown]"}, {"measurement": "T/C", "setting": "[3]", "value": "89 % of control [survivor count not shown]"}]}
{"smiles": "O=P(NCCCO)(OCCCl)N(CCCl)CCCl", "note": "(centres undefined)", "values": [{"measurement": "T/C", "setting": "dose: 37.5 mg/kg/injection, schedule: Q01DX Z (ip), vehicle: methylcellulose (MC)", "value": "110 % of control"}, {"measurement": "T/C", "setting": "dose: 75.0 mg/kg/injection, schedule: Q01DX Z (ip), vehicle: methylcellulose (MC)", "value": "92 % of control"}, {"measurement": "T/C", "setting": "dose: 100.0 mg/kg/injection, schedule: Q01DX009 (ip), vehicle: saline sonified", "value": "105 % of control"}, {"measurement": "T/C", "setting": "dose: 100.0 mg/kg/injection, schedule: Q04DX003 (ip), vehicle: saline", "value": "107 % of control"}, {"measurement": "T/C", "setting": "dose: 150.0 mg/kg/injection, schedule: Q01DX Z (ip), vehicle: methylcellulose (MC)", "value": "94 % of control"}, {"measurement": "T/C", "setting": "dose: 200.0 mg/kg/injection, schedule: Q01DX009 (ip), vehicle: saline sonified", "value": "101 % of control"}, {"measurement": "T/C", "setting": "dose: 200.0 mg/kg/injection, schedule: Q04DX003 (ip), vehicle: saline", "value": "95 % of control"}, {"measurement": "T/C", "setting": "dose: 300.0 mg/kg/injection, schedule: Q01DX Z (ip), vehicle: methylcellulose (MC)", "value": "98 % of control [5 of 6 alive]"}, {"measurement": "T/C", "setting": "dose: 400.0 mg/kg/injection, schedule: Q01DX009 (ip), vehicle: saline sonified", "value": "110 % of control"}, {"measurement": "T/C", "setting": "dose: 400.0 mg/kg/injection, schedule: Q04DX003 (ip), vehicle: saline", "value": "102 % of control [5 of 6 alive]"}, {"measurement": "T/C", "setting": "dose: 750.0 mg/kg/injection, schedule: Q01DX Z (oral), vehicle: carboxymethylcellulose (CMC)", "value": "90 % of control [5 of 6 alive]"}, {"measurement": "T/C", "setting": "dose: 1000.0 mg/kg/injection, schedule: Q01DX Z (oral), vehicle: carboxymethylcellulose (CMC)", "value": "98 % of control"}]}
